# Assay results: patent publication CN116023492A
# Chains of the proteins cited; added tags and fusions are not shown. Residues count along the entry.
# UniProt Q9NZQ7, residues 19-239: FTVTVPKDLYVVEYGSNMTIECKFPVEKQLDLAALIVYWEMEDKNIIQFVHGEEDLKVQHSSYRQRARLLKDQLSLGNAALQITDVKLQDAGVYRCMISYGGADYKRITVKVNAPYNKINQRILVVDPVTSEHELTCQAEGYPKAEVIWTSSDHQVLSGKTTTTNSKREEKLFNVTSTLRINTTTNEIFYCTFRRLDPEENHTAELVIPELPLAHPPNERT
# Where a chain is given by its changes, count along the chain named. Results are given in words; binding and its absence hold for the method and conditions named. Some binding calls cover weakened binding; strength is not graded here.
# B1: 抗人PDL1纳米抗体 Nb2 (VHH, not shown: small tags and cut ends)
# VHH: QVQLQESGGGSVQAGGSLRLSCIASGVDYNSRTDRMAWFRQVPGKEREGVAAIYTYNNRTYYADSVKGRFTISQDIGKNTVYLQMNSLEPEDTATYYCARDWRFSSGMLDKNMYKYWGQGTQVTVSS
# B2: 抗人PDL1纳米抗体 Nb4 (VHH, not shown: small tags and cut ends)
# VHH: QVQLQESGGGSVQAGGSLKLSCTASGYTSGILYMAWFRQAPGKEREAVGCIYPSGRSTVYAVPVEGRFTMSRENRQNTVYLQMDSLKAEDTAVYYCGARPQSCGAPVSTVDYWGQGTQVTVSS
# B3: 抗人PDL1纳米抗体 Nb3 (VHH, not shown: small tags and cut ends)
# VHH: QVQLQESGGGSVQAGGSLRLSCIASGDDYNLKTDRMVWFRPVPEKEREGVASIYTYNNTTYYADSVKGRFTISQDIGKNTVYLQMNSLKPEDTATYYCARDWSFSSGMLHKNMYKYWGQGTHVTVSS
# B4: 抗人PDL1纳米抗体 Nb1 (VHH, not shown: small tags and cut ends)
# VHH: QVQLQESGGGSAQAGGSLRLSCEVSGDTSSLNILGWFRQAPGKEREGVAGIYTDAGTPTYTYADSVKGRFAFSRDNGQNTVYLEMSSLKPEDTAMYYCAAGTMPVRAATLRPARYIYWGQGTQVTVSS
# B5: 抗人PDL1纳米抗体 Nb5 (VHH, not shown: small tags and cut ends)
# VHH: B4 VHH with A12V, A14P, S30T, A40T, T53F, D54A, F72L, I116T
# Target: 人PDL1蛋白 (human) (UniProt Q9NZQ7)
# Experiment: indirect ELISA, PDL1 coated at 1 ug/mL, nanobody 1 ug/mL, anti-HA detection
row,binding,Binder
1,binds,B1
2,binds,B2
3,binds,B3
4,binds,B4
5,binds,B5
